Test results: PMC7819943, “Rice protein-binding microarrays: a tool to detect cis-acting elements near promoter regions in rice”
The list shows a part of the results.

target: T1, OsSMF1 (Oryza sativa, UniProt Q6ZLB0 1-436); test: protein-binding microarray (RPBM); PBS, 2% BSA, 51.3 ng/ul salmon testes DNA, 50 uM zinc acetate, 200 nM TF, 25 C, 1 h; high values mean tight binding; settings: protein: recombinant; tags: N-terminal polyhistidine and DsRed monomer fusion (pET32a); chain copies: 2; label: CyDye5-dUTP incorporated in the synthesized complementary strand; 3' TTTTT single-stranded linker to array surface; dsDNA, one strand shown
T1 sequence: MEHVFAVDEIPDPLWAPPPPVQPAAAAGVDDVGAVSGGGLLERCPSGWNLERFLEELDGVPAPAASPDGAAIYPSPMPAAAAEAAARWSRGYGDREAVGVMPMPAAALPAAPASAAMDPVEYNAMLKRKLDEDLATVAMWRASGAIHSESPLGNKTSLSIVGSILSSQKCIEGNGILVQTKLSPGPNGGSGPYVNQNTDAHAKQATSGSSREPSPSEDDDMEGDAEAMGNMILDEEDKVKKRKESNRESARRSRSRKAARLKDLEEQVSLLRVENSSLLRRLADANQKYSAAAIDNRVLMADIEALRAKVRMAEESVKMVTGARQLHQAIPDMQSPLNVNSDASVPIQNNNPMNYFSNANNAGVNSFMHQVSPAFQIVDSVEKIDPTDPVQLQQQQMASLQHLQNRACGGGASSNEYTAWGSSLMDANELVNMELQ
Procedure, shortened: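 Binding signal is defined as the fluorescence intensity of each feature in arbitrary units, read on an Axon 4000B scanner. Transcription factors with N-terminal polyhistidine and DsRed fusions came from E. coli BL21-CodonPlus and were purified on Ni–NTA. They were incubated at 200 nM for 1 h at 25 °C on a custom Agilent array that had been made double-stranded with Cy5-dUTP, with 50 µM zinc acetate present, and the array was washed.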

Sequence | binding signal
GAGCGATGGGGCCTACATGTCAGTCATGAAGTCAGGGAGGCGGAGTCACCTAGTGCAG | 3450 fluorescence intensity (a.u.)
TTTCATTAGTGCTACGATTGCATTTTGTCAATTCAATAATCGGAGTCACCTAGTGCAG | 3340 fluorescence intensity (a.u.)
ATTTGTGATATGCCACCTGACCCACATGTCATTGACTCATCGGAGTCACCTAGTGCAG | 8220 fluorescence intensity (a.u.)
GTATGTGCCACGTCAGCGAAACCGTTCTCTAAAACCACCTCGGAGTCACCTAGTGCAG | 22400 fluorescence intensity (a.u.)
TCTCCAACCCCAAAGGTTGTGTGTGTTGTTGTGTACAGGTCGGAGTCACCTAGTGCAG | 3270 fluorescence intensity (a.u.)
CCTGGCGCGCCAACTGTCGAAACATGAATTCGGCAATAATCGGAGTCACCTAGTGCAG | 3850 fluorescence intensity (a.u.)
AGGAGAGGTTGATGTGGCCACGTGGCACGCTCCGATTGGCCGGAGTCACCTAGTGCAG | 26100 fluorescence intensity (a.u.)
AAACAAATGCCTGTGAGGGTTGGCAGTGTCAGGGATGCTACGGAGTCACCTAGTGCAG | 3360 fluorescence intensity (a.u.)
CCCTTAGTAATAGGCACGTAAATACTCTTTTCTACTGTAACGGAGTCACCTAGTGCAG | 3180 fluorescence intensity (a.u.)
GCGGCTGGCGACGGGGACGGCGCCGACGTGGGTTGGGGAACGGAGTCACCTAGTGCAG | 3140 fluorescence intensity (a.u.)
ATCTGACATACTCGAGACAACTCATATACTCCATATGTTACGGAGTCACCTAGTGCAG | 3530 fluorescence intensity (a.u.)
CGATCGAACGAGTCCACCACACGACACAACATCACACAACCGGAGTCACCTAGTGCAG | 3390 fluorescence intensity (a.u.)
TAGATCCCAACGCCCCATAAAGTGCCACGTAGTCGGTTTACGGAGTCACCTAGTGCAG | 11200 fluorescence intensity (a.u.)
CTCGCCCGTCGTCCCTCGGCGCCTCGCCATCGCCGGCGGTCGGAGTCACCTAGTGCAG | 27500 fluorescence intensity (a.u.)
TCCTCCTTCCCCTTTCCCTTCCTCCTCTCCACGCAGCAGCCGGAGTCACCTAGTGCAG | 3470 fluorescence intensity (a.u.)
TAGCTGCCACATAGCTGGTGCCTGGTGGCGAGCGCAACGACGGAGTCACCTAGTGCAG | 3400 fluorescence intensity (a.u.)
CCGCACCCCTGGGTCATCGTCGAGGCCACCGTTGCCGAGGCGGAGTCACCTAGTGCAG | 3210 fluorescence intensity (a.u.)
TGTGCTCGCCACATCCGATCCATCGATTCGTGGAATTCTCCGGAGTCACCTAGTGCAG | 4280 fluorescence intensity (a.u.)
CAGCCCGGAGCGTTCGTGGGTTCGGCCCAACCCCAAGTACCGGAGTCACCTAGTGCAG | 4500 fluorescence intensity (a.u.)
CCACCACCACCACGCCACGGCAGCCGCACCGCACCGCACCCGGAGTCACCTAGTGCAG | 5700 fluorescence intensity (a.u.)
TAATTATGTTTGCCAGCAAATCCGGGAAATTAAAACCTTACGGAGTCACCTAGTGCAG | 14400 fluorescence intensity (a.u.)

For reference, part of the list above.
Sequence | binding signal
GCGGCTGGCGACGGGGACGGCGCCGACGTGGGTTGGGGAACGGAGTCACCTAGTGCAG | 3140 fluorescence intensity (a.u.)
ATCTGACATACTCGAGACAACTCATATACTCCATATGTTACGGAGTCACCTAGTGCAG | 3530 fluorescence intensity (a.u.)

Further records follow:

Sequence | binding signal
GGCGACCATCTCCGCCGCCACGGTCATCGCCGTGTCGGCCCGGAGTCACCTAGTGCAG | 5530 fluorescence intensity (a.u.)
CTGCTTCGTCGTAACCCTTAGCGAGTAACGTGGCATATTCCGGAGTCACCTAGTGCAG | 5010 fluorescence intensity (a.u.)
AGCTATGAATATCATTGTGACGTCAATGTCCTTACAAAATCGGAGTCACCTAGTGCAG | 4060 fluorescence intensity (a.u.)
ACGACATGCGTGCAAATGCATTGTAAATTTGTAATACGGCCGGAGTCACCTAGTGCAG | 22300 fluorescence intensity (a.u.)
CTCCAATTTCCCAACTCCCCAATCTGTCACCTCGCAGCTTCGGAGTCACCTAGTGCAG | 3540 fluorescence intensity (a.u.)
TGAATGACTAACAACTACATGATGTGGGTGACTGCTATATCGGAGTCACCTAGTGCAG | 4370 fluorescence intensity (a.u.)
GGCAACAATGCTGTCATTTAATTATGTACCTGTCATTTATCGGAGTCACCTAGTGCAG | 23700 fluorescence intensity (a.u.)
CATCGGGCCCTCCTCCGCAACGTAAGCCATCCACGCACCACGGAGTCACCTAGTGCAG | 3290 fluorescence intensity (a.u.)
CGGTTGGTGGACTAAACCTGGAATGACAAACCTCCAGGGACGGAGTCACCTAGTGCAG | 3250 fluorescence intensity (a.u.)
CCGACGACGTCACCTCCTCCTCCGCGACCGCCATGTCGTCCGGAGTCACCTAGTGCAG | 4760 fluorescence intensity (a.u.)
GCATCTTCCATAAAGGATTATGATGTGTCTCATCTAATTCCGGAGTCACCTAGTGCAG | 3350 fluorescence intensity (a.u.)
TAATTACATAGCTTAGCTTTTAGATGTCCGTGGCAAATTTCGGAGTCACCTAGTGCAG | 3480 fluorescence intensity (a.u.)
CGACAGAGTTGGCTCGACGATGGAGCAGAGGTTCAAGGTCCGGAGTCACCTAGTGCAG | 3420 fluorescence intensity (a.u.)
GAACCAAATGAAATGAGAACAAATTTAGTAAGTATTGGTGCGGAGTCACCTAGTGCAG | 19500 fluorescence intensity (a.u.)
ATAACGTTGATTTGGGCAACAAATTAAATAGGCACAGTAACGGAGTCACCTAGTGCAG | 3260 fluorescence intensity (a.u.)
CGCCACGTTCCTCCTGACCCATGCCACGCGCCGCCGTGCCCGGAGTCACCTAGTGCAG | 3750 fluorescence intensity (a.u.)
TGTGAATTACTAGTAGTACGTAAGCATAAATACGCCACCCCGGAGTCACCTAGTGCAG | 3550 fluorescence intensity (a.u.)
GTGCAGTGAGTGGTGGCAGTGCAGTGCTCCAGTCATTTCCCGGAGTCACCTAGTGCAG | 4050 fluorescence intensity (a.u.)
TACATTCACGGAATACGCTGGCGTGTAGTCGTACACGTACCGGAGTCACCTAGTGCAG | 5250 fluorescence intensity (a.u.)
GCTCCCGGGAGCTCTGCGCATGGCGCGCCACGTCACCCACCGGAGTCACCTAGTGCAG | 30100 fluorescence intensity (a.u.)
GACATTTACATGTACTGATTGCTGATTGCCATTGATTCATCGGAGTCACCTAGTGCAG | 22800 fluorescence intensity (a.u.)
